PubChem BioAssay AID652243 | Drosophila RNAi Screening Center | 2013
The deposit covers about 24,000 reagents; below is an unselected part of those with a known target gene and a result. In the full data, 246 (1%) were called active. 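Plates not normalised; calls are printed but the firefly/Renilla ratio behind them is not deposited; fold cut for lowering reported inconsistently.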 The raw values are shown without normalisation. Entries without a mark were called inactive. Reagents against one gene are numbered here. Not stated in the record: the amount of reagent.

- Assay: 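Fly regulators of androgen-dependent reporter output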 (primary screen)
- System: Drosophila S2R+ cells
- Reagent: long dsRNA against Drosophila genes
- Duration: 72 h (48 h, then 24 h hormone)
- Conditions: synthetic androgen R1881 at 10 nM for 24 h
- Read-out: 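Firefly light from an androgen-responsive reporter and Renilla control light per well, raw and unnormalised, for each of two replicates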
- Scale: firefly reporter light: higher = more light from androgen-responsive reporter; Renilla control light: higher = more constitutive control signal (cell number, transfection)
- Active means: 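Hit when the log firefly-to-Renilla ratio dropped or increased by a fixed fold versus the mean of GFP or LacZ controls across duplicate plates; lowering cut given as 1.5 and as 3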
- Meaning of the calls: active = hit: reporter lowered or raised; inactive = no hit

The opening 6 entries, to show the layout:
target | reagent no. | firefly reporter light, replicate 1 | firefly reporter light, replicate 2 | Renilla control light, replicate 1 | Renilla control light, replicate 2
Amyrel | 1 | 1.14e6 | 1.18e6 | 2.43e6 | 2.40e6
Hn | 1 | 8.42e5 | 7.91e5 | 2.02e6 | 1.67e6
Zir | 1 | 1.35e6 | 1.48e6 | 5.19e6 | 3.06e6
S-Lap1 | 1 | 6.72e5 | 5.98e5 | 1.82e6 | 1.95e6
twy | 1 | 2.89e5 | 2.47e5 | 3.41e6 | 2.94e6
dah | 1 | 86464 | 96575 | 8.24e5 | 7.59e5

Results, from the start:
target | reagent no. | firefly reporter light, replicate 1 | firefly reporter light, replicate 2 | Renilla control light, replicate 1 | Renilla control light, replicate 2
Amyrel | 1 | 1.14e6 | 1.18e6 | 2.43e6 | 2.40e6
Hn | 1 | 8.42e5 | 7.91e5 | 2.02e6 | 1.67e6
Zir | 1 | 1.35e6 | 1.48e6 | 5.19e6 | 3.06e6
S-Lap1 | 1 | 6.72e5 | 5.98e5 | 1.82e6 | 1.95e6
twy | 1 | 2.89e5 | 2.47e5 | 3.41e6 | 2.94e6
dah | 1 | 86464 | 96575 | 8.24e5 | 7.59e5
CG18507 | 1 | 3.13e5 | 2.54e5 | 3.69e5 | 3.04e5
CG18507 | 2 | 2.98e5 | 2.88e5 | 1.88e6 | 1.91e6
conu | 1 | 1.81e5 | 1.31e5 | 5.47e5 | 6.06e5
CG9240 | 1 | 6.27e5 | 4.53e5 | 3.20e6 | 2.36e6
Nup188 | 1 | 9.04e5 | 8.53e5 | 3.75e6 | 4.40e6
Nup188 | 2 | 4.18e5 | 3.38e5 | 9.11e5 | 9.63e5
stan | 1 | 10424 (active) | 13186 | 1.09e5 | 1.20e5
stan | 2 | 2.44e5 | 2.18e5 | 1.94e6 | 1.55e6
CG13059 | 1 | 4.21e5 | 3.66e5 | 3.27e6 | 2.30e6
CIAPIN1 | 1 | 5.63e5 | 7.06e5 | 1.50e6 | 1.52e6
CIAPIN1 | 2 | 3.97e5 | 3.94e5 | 3.70e5 | 4.65e5
RhoGAP102A | 1 | 2.43e5 | 3.41e5 | 4.41e6 | 3.70e6
RhoGAP102A | 2 | 1.16e6 | 1.04e6 | 2.29e6 | 1.60e6
nxf4 | 1 | 1.03e5 | 1.55e5 | 3.20e6 | 2.47e6
CG18538 | 1 | 2.44e5 | 4.51e5 | 2.08e6 | 2.08e6
CG7299 | 1 | 2.58e5 | 2.30e5 | 1.20e6 | 1.41e6
CG7299 | 2 | 6.88e5 | 6.36e5 | 7.62e5 | 8.26e5
elB | 1 | 5.91e5 | 2.99e5 | 6.89e5 | 4.44e5
CG6962 | 1 | 42765 | 47007 | 3.90e5 | 4.77e5
CG6962 | 2 | 5.38e5 | 6.07e5 | 9.83e5 | 1.28e6
CG31463 | 1 | 28473 | 19730 | 4.36e5 | 3.72e5
CG31463 | 2 | 2.80e5 | 3.16e5 | 5.15e5 | 5.58e5
Hmgcr | 1 | 1.09e5 | 1.37e5 | 1.70e6 | 1.74e6
Hmgcr | 2 | 3.92e5 | 3.98e5 | 1.18e6 | 1.40e6
PIG-N | 1 | 2.29e5 | 2.38e5 | 1.34e6 | 1.64e6
CG30284 | 1 | 4.10e5 | 5.14e5 | 1.84e6 | 2.54e6
CG13643 | 1 | 1.43e5 | 1.49e5 | 2.31e6 | 1.94e6
CG13643 | 2 | 1.39e5 | 1.81e5 | 2.13e6 | 2.37e6
CG13643 | 3 | 4.17e5 | 8.21e5 | 7.33e5 | 1.42e6
CG31612 | 1 | 7.12e5 | 7.75e5 | 1.55e6 | 1.77e6
CG31612 | 2 | 2.68e5 | 2.16e5 | 2.49e6 | 1.33e6
CG2065 | 1 | 3.60e5 | 3.90e5 | 2.75e6 | 2.34e6
CG2065 | 2 | 8.07e5 | 8.01e5 | 2.32e6 | 2.13e6
CG2065 | 3 | 5.17e5 | 4.90e5 | 1.21e6 | 1.26e6
CG11052 | 1 | 96077 | 90882 | 1.72e6 | 1.69e6
CG3246 | 1 | 1.02e5 | 94079 | 7.47e5 | 7.98e5
ich | 1 | 84857 | 91813 | 1.62e6 | 1.77e6
ich | 2 | 3.48e5 | 4.99e5 | 1.26e6 | 1.26e6
Grx3 | 1 | 9.33e5 | 9.41e5 | 1.74e6 | 2.71e6
upSET | 1 | 7.79e5 | 8.15e5 | 1.20e6 | 1.73e6
flfl | 1 | 34312 | 12759 | 2.22e5 | 1.84e5
CG6739 | 1 | 1.89e5 | 1.34e5 | 1.39e6 | 1.15e6
Lcp9 | 1 | 3.46e5 | 3.06e5 | 2.41e6 | 1.58e6
Arl8 | 1 | 86069 | 85165 | 1.49e6 | 1.67e6
nol | 1 | 7.45e5 | 8.90e5 | 1.16e6 | 1.19e6
nol | 2 | 3.26e5 | 5.02e5 | 6.61e5 | 5.80e5
CG41520 | 1 | 4.57e5 | 5.21e5 | 2.67e6 | 2.91e6
CG41520 | 2 | 7.16e5 | 9.63e5 | 1.19e6 | 2.17e6
CG7653 | 1 | 1.43e5 | 1.29e5 | 1.70e6 | 1.56e6
LysE | 1 | 1.04e5 | 1.44e5 | 1.29e6 | 1.64e6
Nlg4 | 1 | 2.21e5 | 1.79e5 | 2.75e6 | 3.22e6
Nlg4 | 2 | 2.27e5 | 1.95e5 | 2.75e6 | 2.98e6
Nlg4 | 3 | 2.22e5 | 1.65e5 | 9.59e5 | 7.02e5
Nlg4 | 4 | 3.97e5 | 3.43e5 | 1.16e6 | 1.01e6
Nlg4 | 5 | 4.67e5 | 3.51e5 | 9.68e5 | 9.96e5
Nlg4 | 6 | 3.63e5 | 3.44e5 | 1.06e6 | 1.40e6
CG12420 | 1 | 3.99e5 | 4.16e5 | 2.83e6 | 2.77e6
Cpr12A | 1 | 4.72e5 | 5.59e5 | 2.68e6 | 3.96e6
CG42808 | 1 | 7.14e5 | 8.05e5 | 2.44e6 | 2.77e6
Act5C | 1 | 1.68e5 | 2.31e5 | 2.26e6 | 2.95e6
Act5C | 2 | 5.17e5 | 7.27e5 | 7.12e5 | 6.72e5
CG12065 | 1 | 1.01e5 | 1.07e5 | 6.55e5 | 5.90e5
CG12065 | 2 | 3.56e5 | 3.38e5 | 3.85e6 | 3.46e6
CG34227 | 1 | 1.73e5 | 1.51e5 | 1.03e6 | 9.60e5
CG34227 | 2 | 2.86e5 | 2.23e5 | 1.79e6 | 1.72e6
CHMP2B | 1 | 5.94e5 | 4.70e5 | 1.19e6 | 9.51e5
CHMP2B | 2 | 3.27e5 | 2.65e5 | 7.16e5 | 7.07e5
Saf-B | 1 | 24989 | 69168 | 4.02e5 | 5.81e5
Saf-B | 2 | 5.63e5 | 1.08e6 | 8.75e5 | 1.22e6
